Series [1] can be described thus: Uniformity of pyrimethanil distribution over distance in tunnel, fogged vs vaporized (Petri plates, HPLC). Particulars: 72 hours.
Series [2] can be described thus: Drenching vs. vaporizing treatments of apples, pyrimethanil residue on apple.

For `Cc1cc(C)nc(Nc2ccccc2)n1` [pyrimethanil, 4,6-Dimethyl-N-phenylpyrimidin-2-amine], the “variation from the average pyrimethanil distribution” value in series [1] (fogged, distances of 1-2 meters) is reported as 50%-110%; in series [1] (fogged, distances of 5-8 meters), 20%-50%; in series [1] (vaporized, until the treatment distance was increased to 8 meters), ≤ 40%. In addition, the “Apple PYR residue (ppm)” value in series [2] (DRENCH, Treatment Rate 500 mg/L) came out at 3.2 ppm; in series [2] (DRENCH, Treatment Rate 2,000 mg/L) it was 3.55 ppm; in series [2] (VAPOR, Treatment Rate 0.5 mg/L), 3.89 ppm; in series [2] (VAPOR, Treatment Rate 2 mg/L), 7.99 ppm.
